Assay results published in PubChem BioAssay AID1347426 (Functional Genomics Laboratory (NCATS/FGL), 2020).
In all, about 31,000 sequences went through this assay and about 1,400 (4.5%) were called active.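 The calls were made as follows: active = median seed-adjusted z-score above 1 or below -1; inactive = the rest.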 This is one part of the list.

Test: Novel Modifiers of Survival Motor Neuron (SMN) Protein: Gene Identification via Genome-wide siRNA Screen;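 also: luminescence tracks full-length SMN protein made from the SMN2 reporter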
Conditions: HEK293T SMN2-luciferase reporter, siRNA knockdown, 72 h; actives lie on both sides
Method in brief: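 Each of three siRNAs per gene is reverse-transfected (1 pmol) into reporter HEK293T cells whose luciferase output tracks SMN protein level. After 72 h culture, ONE-Glo luminescence is control-normalized, log10-transformed and MAD-standardized; Common Seed Analysis deprioritizes seed-driven hits.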

Question: For CAUUGGAAACCAGAGCUUUTT against CPN2, which median seed-adjusted z-score is on record?
Answer: The median seed-adjusted z-score was inactive: 0.0491.

Question: For GCUCCUCUGUUGAUAUGCATT against ZNF786, which median seed-adjusted z-score is on record?
Answer: The median seed-adjusted z-score was inactive: -0.518.

Question: Which median seed-adjusted z-score does the source give for AAAGUGGAUUGCACACAGATT against TGFB1I1 here?
Answer: Its median seed-adjusted z-score is inactive: 0.887.

Question: Which median seed-adjusted z-score does the source give for CCCUAUCGAUGUAAUCUAUTT against ZFP90 here?
Answer: Its median seed-adjusted z-score is inactive: 0.

Question: For GCAGAUCUCAUGUCCUCUATT against FPGS, which median seed-adjusted z-score is on record?
Answer: The median seed-adjusted z-score was inactive: -0.853.

Question: With CCCAGUUCCUAGACUGUAUTT against MTMR8 as the sequence, how does the median seed-adjusted z-score read?
Answer: The median seed-adjusted z-score was inactive: -0.416.

Question: With GCUACAUCUUUAUAAGGGATT against IL12RB2 as the sequence, how does the median seed-adjusted z-score read?
Answer: The median seed-adjusted z-score was inactive: 0.368.

Question: With GGUUAUCCUUUGCCCAGCATT against ACTL7A as the sequence, how does the median seed-adjusted z-score read?
Answer: The median seed-adjusted z-score was active: 1.1.

Question: For CAGCUUACAAUACAUCAAATT against ZNF7, which median seed-adjusted z-score is on record?
Answer: Its median seed-adjusted z-score is inactive: 0.

Question: For GGUCUUCAGAUGAGCAGAATT against COQ9, which median seed-adjusted z-score is on record?
Answer: The median seed-adjusted z-score was inactive: -0.787.

Question: With CGUCGUACAAGUGAACAAATT against CACNA1A as the sequence, how does the median seed-adjusted z-score read?
Answer: The median seed-adjusted z-score was inactive: -0.467.

Question: Which median seed-adjusted z-score does the source give for GGGAUUCCCUUGGAGGUAATT against KIF15 here?
Answer: Its median seed-adjusted z-score is inactive: -0.873.

Question: With GCAUCUCCUUUUACAAUGUTT against MEFV as the sequence, how does the median seed-adjusted z-score read?
Answer: The median seed-adjusted z-score was inactive: 0.

Question: Which median seed-adjusted z-score does the source give for AGGUUACAGAGGACUCAGATT against MZF1 here?
Answer: The median seed-adjusted z-score was inactive: 0.215.

Question: For AAACGAGACUACUUCCUUATT against TUBGCP6, which median seed-adjusted z-score is on record?
Answer: Its median seed-adjusted z-score is inactive: 0.

Question: With GAGACUAUAUCUACAUGAATT against SLITRK3 as the sequence, how does the median seed-adjusted z-score read?
Answer: The median seed-adjusted z-score was inactive: -0.564.

Question: With GAAUCGGCAGUGACAGGAATT against NPR3 as the sequence, how does the median seed-adjusted z-score read?
Answer: The median seed-adjusted z-score was inactive: -0.436.

Question: For CCGGAUGGGUGUUUGAGAATT against LCN6, which median seed-adjusted z-score is on record?
Answer: The median seed-adjusted z-score was inactive: 0.584.

Question: For GCUAAGAACAUGUAUGGAUTT against KIF23, which median seed-adjusted z-score is on record?
Answer: Its median seed-adjusted z-score is inactive: -0.449.

Question: Which median seed-adjusted z-score does the source give for GCAUGGACUUAAAAGUGGATT against GFPT2 here?
Answer: Its median seed-adjusted z-score is inactive: 0.412.

Question: With GAUGGAACAUGUACGGUUATT against KLHL2 as the sequence, how does the median seed-adjusted z-score read?
Answer: Its median seed-adjusted z-score is inactive: 0.

Question: Which median seed-adjusted z-score does the source give for GAAACCAGCUCGAAUAUAUTT against ATP5C1 here?
Answer: Its median seed-adjusted z-score is inactive: -0.0179.

Question: With GCCUAACCGAAGCAUAUAATT against ACOX1 as the sequence, how does the median seed-adjusted z-score read?
Answer: The median seed-adjusted z-score was inactive: -0.897.

Question: Which median seed-adjusted z-score does the source give for GCUCCAACCAGACAACAAATT against ZDHHC14 here?
Answer: The median seed-adjusted z-score was inactive: 0.312.

Question: Which median seed-adjusted z-score does the source give for GACUAUAACUUCCCGAAAATT against SYT11 here?
Answer: Its median seed-adjusted z-score is inactive: 0.29.

Question: With CACUCCAGAUGCUACAAAATT against PGLYRP2 as the sequence, how does the median seed-adjusted z-score read?
Answer: Its median seed-adjusted z-score is inactive: -0.697.

Question: For CGGUGACCAUCAAAUCUGUTT against TMED4, which median seed-adjusted z-score is on record?
Answer: The median seed-adjusted z-score was inactive: -0.895.

Question: For GGGUCGAUGAAGAAUAUCATT against PHKA1, which median seed-adjusted z-score is on record?
Answer: Its median seed-adjusted z-score is inactive: 0.286.

Question: Which median seed-adjusted z-score does the source give for GCAAUUUGGUUCUAUACCATT against SLC2A9 here?
Answer: Its median seed-adjusted z-score is inactive: 0.216.

Question: For GGAAUACUUAAGUCAGAUATT against PLSCR2, which median seed-adjusted z-score is on record?
Answer: Its median seed-adjusted z-score is inactive: 0.

Question: Which median seed-adjusted z-score does the source give for GCAUGGGAAUCAUUGUGCUTT against PPIL1 here?
Answer: The median seed-adjusted z-score was inactive: 0.166.

Question: For GGACUGUCUUGAGAAAACATT against RCAN1, which median seed-adjusted z-score is on record?
Answer: Its median seed-adjusted z-score is inactive: -0.000195.

Question: For GCACGGAGAUUUUGGUCAATT against CNTN2, which median seed-adjusted z-score is on record?
Answer: Its median seed-adjusted z-score is inactive: 0.

Question: Which median seed-adjusted z-score does the source give for CAAACUGAACAGAAGAAUUTT against KLK5 here?
Answer: Its median seed-adjusted z-score is inactive: 0.

Question: For GGCUCGAUUUAAUUGUUCATT against DDX20, which median seed-adjusted z-score is on record?
Answer: The median seed-adjusted z-score was inactive: -0.0137.

Question: With CGGAUUCAUUUGUGACUAUTT against PLS3 as the sequence, how does the median seed-adjusted z-score read?
Answer: The median seed-adjusted z-score was inactive: -0.167.

Question: With GUGUAUGAGUUUAGAGUCATT against EZH2 as the sequence, how does the median seed-adjusted z-score read?
Answer: The median seed-adjusted z-score was inactive: 0.313.

Question: Which median seed-adjusted z-score does the source give for GAGUUCGGCUGGUACAGUUTT against CASK here?
Answer: The median seed-adjusted z-score was inactive: -0.422.

Question: With GUCGCUUCGUCAAGAAAGATT against KCNJ14 as the sequence, how does the median seed-adjusted z-score read?
Answer: The median seed-adjusted z-score was inactive: -0.526.

Question: With CCAUUAUUGCUGCCCGGAATT against PGM5 as the sequence, how does the median seed-adjusted z-score read?
Answer: Its median seed-adjusted z-score is inactive: -0.0543.

Question: With ACUGACUGCUUGACCUUUATT against PVRL4 as the sequence, how does the median seed-adjusted z-score read?
Answer: The median seed-adjusted z-score was inactive: -0.266.

Question: With CCUGUACUGGGUUAUUUUUTT against KCNJ11 as the sequence, how does the median seed-adjusted z-score read?
Answer: The median seed-adjusted z-score was inactive: -0.567.

Question: Which median seed-adjusted z-score does the source give for GCAGAUCAACUCACAAUGATT against MXD1 here?
Answer: Its median seed-adjusted z-score is inactive: -0.763.

Question: For CCUCAUUGAUAACACUAAATT against GBP2, which median seed-adjusted z-score is on record?
Answer: The median seed-adjusted z-score was inactive: -0.263.

Question: For GCCUUCGGAUCCUAACAAATT against NCOA6, which median seed-adjusted z-score is on record?
Answer: The median seed-adjusted z-score was inactive: -0.0197.

Question: Which median seed-adjusted z-score does the source give for GGUCUGCAAGAGACAAUUATT against LEF1 here?
Answer: The median seed-adjusted z-score was inactive: 0.808.

Question: Which median seed-adjusted z-score does the source give for AAACAACAGUGGAGCUCUUTT against PLA2G12A here?
Answer: The median seed-adjusted z-score was inactive: 0.139.

Question: With GGUUCACCGCUGUCAGUUUTT against KLF7 as the sequence, how does the median seed-adjusted z-score read?
Answer: The median seed-adjusted z-score was inactive: 0.393.

Question: For AGAUGUCGCUCAUCCUUUATT against TMPRSS3, which median seed-adjusted z-score is on record?
Answer: The median seed-adjusted z-score was inactive: -0.554.

Question: For CCAUUUGGAUCCCACCUUCTT against FCGR2A, which median seed-adjusted z-score is on record?
Answer: Its median seed-adjusted z-score is inactive: -0.19.

Question: Which median seed-adjusted z-score does the source give for GCUACUACCAGGAAUUCAATT against ATP4A here?
Answer: Its median seed-adjusted z-score is inactive: 0.

Question: For GCAAGAUCUGAUGCACAUATT against NUAK2, which median seed-adjusted z-score is on record?
Answer: The median seed-adjusted z-score was inactive: -0.0601.

Question: With GAUAAUUCCAAGUCCAUGATT against NEUROD6 as the sequence, how does the median seed-adjusted z-score read?
Answer: Its median seed-adjusted z-score is inactive: -0.261.

Question: With GCAACAGCAUGUCAUAGAATT against CCT5 as the sequence, how does the median seed-adjusted z-score read?
Answer: Its median seed-adjusted z-score is inactive: 0.
